Data from PubChem BioAssay AID493014 (National Center for Advancing Translational Sciences (NCATS), 2011).
The campaign covered roughly 340,000 compounds. About 170 (0.05%) were called active. The inconclusive results got no clear call from the source; some entries with a clear call stand among them for comparison. The call rests on the fitted dose curve; in most records, active means well fitted inhibition curve with a large enough effect in the signal ratio, with a control signal flat (not every such curve was filed as active); inconclusive means small, poorly fitted or top-dose-only effect, or effect the other way, or a change in a side signal; inactive means flat fitted curve, though single readings scatter; the % refers to the signal ratio. Where the call is inconclusive, the potency comes from a doubtful curve fit. Square brackets hold non-standard residues; d marks the D form. Peptide text beside a SMILES is read from it. * marks the point of attachment. ξ: configuration not given here. Cbz = O=C(OCc1ccccc1)*; ξA = CC(N)C(=O)O

test: qHTS Assay to Find Inhibitors of Chronic Active B-Cell Receptor Signaling; conditions: ABC-DLBCL IkBa-CBG/CBR reporter, luminescence ratio (green luciferase fused to IkBa over red control in TMD8 lymphoma cells), 4 h; activity change, negative = inhibition: at 46.1 µM (top of the series);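 on activity change, negative = inhibition: plate controls were basal doxycycline-induced cells for no effect and cells given 10 µM MG132 for full effect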
In short: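 TMD8 human ABC-DLBCL cells with doxycycline-inducible IκBα–green luciferase fusion and unfused red luciferase, in 0.5% FBS medium; compounds up to 46 uM, 4 h at 37C. Green/red luminescence ratio, filter-overlap corrected, fitted to concentration-response curves.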
Potency means the concentration at half of the fitted maximal effect.

SMILES	activity change, negative = inhibition	Potency
CC1CCN(C(=O)C2CCCN(c3ncnc4c3nc3n4CCCCC3)C2)CC1 (stereo not given)	inactive: -0.672%	–
O=S(=O)(c1cccc(C(F)(F)F)c1)N(CCCN1CCOCC1)Cc1cccs1	inconclusive: -1.79%	–
Cc1nc(NCCc2cnc[nH]2)c2oc3ccccc3c2n1	inconclusive: 5.87%	–
Cc1cc(Br)ccc1NC(=O)CN(C)C(=O)C1CSC2(C)CCC(=O)N12 (stereo not given)	inactive: -4.16%	–
C(=C\c1ccco1)/c1ccc2ccccc2n1	inconclusive: 3.6%	–
O=C(NC(=S)Nc1ccc2c(c1)OCCO2)c1cccc(Br)c1	inconclusive: -19.2%	–
COc1ccccc1Nc1nnc(SCC(=O)NC(=O)Nc2ccc3c(c2)OCCO3)s1	inconclusive: -0.843%	–
CCCCn1nnc(NC(=O)Cc2ccc(Cl)cc2)n1	inconclusive: -20%	–
O=[N+]([O-])c1cc(Br)c(O)c(C=Nc2ccc(N3CCOCC3)cc2)c1	inconclusive: 4.65%	–
COc1ccc(-c2cc(C(F)(F)F)n3nc(C(=O)N4CCN(C(=O)c5ccco5)CC4)cc3n2)cc1	inconclusive: -0.738%	–
CCOc1ccccc1NC(=O)N1CCCC1C(=O)Nc1nnc(CC)s1 (stereo not given)	inconclusive: 2.2%	–
CCOP(=O)(OCC)C(NC(=O)Nc1cccc(Cl)c1)C(N)=O (stereo not given)	inconclusive: 7.84%	–
CCOc1ccc(S(=O)(=O)N2CCOCC2)cc1NC(=O)CN1C(=O)NC(C)(c2ccccc2)C1=O (stereo not given)	inconclusive: 8.65%	–
Cc1ccccc1NC(=O)c1ccc(S(=O)(=O)C(F)F)cc1	–	inconclusive: 25.9 µM [falling, single point]
COC(=O)c1cc(O)c(OCc2ccccc2)c(O)c1	inconclusive: 2.65%	–
Cc1cc(/C=N/NC(=O)c2ccc(O)cc2)c(C)n1CC(C)C	inconclusive: 210%	–
Cc1cccc(Nc2nnc(SCC(=O)NC(=O)Nc3ccc4c(c3)OCCO4)s2)c1	–	inconclusive: 11.6 µM [falling, partial curve]
CCOc1cccc2sc(N3CCN(C(=O)c4ccc5c(c4)CCCC5)CC3)nc12	inactive: -11.7%	–
CC(C)CCNC(=O)c1c(CSc2ccccc2)noc1C(=O)NCc1ccccc1	inactive: -0.825%	–
CCS(=O)(=O)N1CCN(c2ccc([N+](=O)[O-])c(NCc3cccnc3)c2)CC1	inconclusive: 2.7%	–
CCCc1ccc(C(=O)[C@@H]2[C@@H](C(C)=O)N3c4ccc(F)cc4C=C[C@@H]3[C@@]23C(=O)Nc2ccccc23)cc1	inconclusive: 0.169%	–
Nc1nc2ccccc2n1/N=C/c1ccc(Br)cc1	inactive: 18%	–
O=C1Nc2ccccc2SC(c2ccccc2)C1O (stereo not given)	–	inconclusive: 8.2 µM [rising, partial curve, poor fit]
COc1cccc(NC(=O)CN(C)C(=O)c2csc3c2CCCC3)c1	inconclusive: -7.35%	–
CCn1c(C)nc2cc(S(=O)(=O)C(F)(F)F)ccc21	inactive: 19.3%	–
CCc1ccccc1NC(=O)c1cnn(-c2ccccc2)c1C	–	inconclusive: 17.8 µM [falling, single point]
C=CCn1c(SCc2c(C)noc2C)nc2sc3c(c2c1=O)CCCC3	inconclusive: -1.5%	–

SMILES	activity change, negative = inhibition	Potency
COc1ccc(NC(=O)c2cccs2)cc1OC	–	inconclusive: 18.4 µM [falling, partial curve]
O=C1N=C(N2CCCCC2)S/C1=C\c1ccc(Cl)cc1	inactive: -0.316%	–
COc1cc(/C=C2\C(=O)ON=C2c2ccccc2)cc(Cl)c1O	inconclusive: 10.5%	–
COC(=O)c1ccc(NC(=O)C(=O)c2cn(CC(=O)N3CCOCC3)c3ccccc23)cc1	–	inconclusive: 35.5 µM [falling, partial curve, poor fit]
CC1CC(C)CN(C(=O)COC(=O)c2ccc(S(=O)(=O)N(C)c3ccccc3)cc2)C1 (stereo not given)	inactive: 0.264%	–
O=C(NCc1ccccc1F)c1ccc(S(=O)(=O)Nc2cccc(C(F)(F)F)c2)cc1	inconclusive: 1.01%	–
CN(C(=O)CSc1nc2ccccc2s1)c1c(N)n(Cc2ccccc2)c(=O)[nH]c1=O	inactive: -8.91%	–
O=C(N/N=C/c1ccc[nH]1)c1ccc(Cl)cc1	inconclusive: -22.6%	–
CC1(C)C(=O)Nc2ccccc2N1C(=O)COC(=O)COc1ccc(C#N)cc1	inactive: 1.06%	–
O=C1CC(Cc2ccccc2)C(=O)N1CCc1ccc2c(c1)OCO2 (stereo not given)	inconclusive: -0.949%	–
COc1ccc(-c2nn(CCC#N)cc2C=C(C#N)C#N)cc1	–	inconclusive: 12.6 µM [falling, single point]
COc1ccccc1C1=NOC(Cn2c(NCCCO)nc3c2c(=O)n(C)c(=O)n3C)C1 (stereo not given)	inconclusive: 4.12%	–
CCOc1ccccc1N1CCN(C(=O)CSc2ccc3c(c2)OCCO3)CC1	inconclusive: 1.41%	–
O=C(NNC1=Nc2ccccc2SC1)c1ccc(F)cc1	inconclusive: -15.5%	–
CCCCNc1nc(-c2ccccc2)nc(-n2ccnc2)n1	–	inconclusive: 0.326 µM [rising, full curve, poor fit]
C=CCCC(=O)N1CCC(n2nccc2NC(=O)c2ccccc2C)CC1	inactive: 1.15%	–
Cc1c(C(=O)OCC(=O)Nc2cccc(S(N)(=O)=O)c2)oc2c1ccc1ccccc12	–	inconclusive: 31.6 µM [falling, single point]
Cc1cc(=O)[nH]c(SCC(=O)Nc2cccc(C(F)(F)F)c2)n1	–	inconclusive: 23.1 µM [rising, partial curve, poor fit]
CCOC(=O)c1c(C)oc2ccc(NS(=O)(=O)c3cccs3)cc12	inconclusive: -16.6%	–
Cc1sc(NC(=O)c2ccco2)c(C(c2cccnc2)N2CCN(c3ccc(F)cc3)CC2)c1C (stereo not given)	inactive: 9.46%	–
CCc1cccc(NC(=S)N2CCC(c3ccccc3)C2)c1 (stereo not given)	inactive: 1.01%	–
CCN1CCN(c2ccc(S(=O)(=O)N3CCCCC3)cc2NC(=O)COc2cc(C)ccc2Cl)CC1	inconclusive: -17.8%	–
NNC(=S)Nc1ccc(OC(F)(F)F)cc1	inconclusive: -12.3%	–
Cc1ccc(-n2cc(CNCCCn3ccnc3C)c(-c3ccc(F)cc3)n2)cc1	–	inconclusive: 25.1 µM [falling, single point]
CC(=O)Nc1ccc(C(=O)CN2C(=O)CSC2=O)cc1	inconclusive: 4.54%	–
CC1Sc2ccc(C(=O)N3CCCC(C(F)(F)F)C3)cc2NC1=O (stereo not given)	–	inconclusive: 0.92 µM [rising, full curve, poor fit]
Cc1ccc(C)c(NC(=S)NCCSc2ccc(Cl)cc2)c1	inconclusive: 10.7%	–

Another view of 22 compounds above.

| SMILES | activity change, negative = inhibition | Potency |
| --- | --- | --- |
| O=S(=O)(c1cccc(C(F)(F)F)c1)N(CCCN1CCOCC1)Cc1cccs1 | inconclusive: -1.79% | – |
| Cc1nc(NCCc2cnc[nH]2)c2oc3ccccc3c2n1 | inconclusive: 5.87% | – |
| Cc1cc(Br)ccc1NC(=O)CN(C)C(=O)C1CSC2(C)CCC(=O)N12 (stereo not given) | inactive: -4.16% | – |
| C(=C\c1ccco1)/c1ccc2ccccc2n1 | inconclusive: 3.6% | – |
| O=C(NC(=S)Nc1ccc2c(c1)OCCO2)c1cccc(Br)c1 | inconclusive: -19.2% | – |
| COc1ccccc1Nc1nnc(SCC(=O)NC(=O)Nc2ccc3c(c2)OCCO3)s1 | inconclusive: -0.843% | – |
| CCCCn1nnc(NC(=O)Cc2ccc(Cl)cc2)n1 | inconclusive: -20% | – |
| O=[N+]([O-])c1cc(Br)c(O)c(C=Nc2ccc(N3CCOCC3)cc2)c1 | inconclusive: 4.65% | – |
| COc1ccc(-c2cc(C(F)(F)F)n3nc(C(=O)N4CCN(C(=O)c5ccco5)CC4)cc3n2)cc1 | inconclusive: -0.738% | – |
| CCOc1ccccc1NC(=O)N1CCCC1C(=O)Nc1nnc(CC)s1 (stereo not given) | inconclusive: 2.2% | – |
| CCOP(=O)(OCC)C(NC(=O)Nc1cccc(Cl)c1)C(N)=O (stereo not given) | inconclusive: 7.84% | – |
| CCOc1ccc(S(=O)(=O)N2CCOCC2)cc1NC(=O)CN1C(=O)NC(C)(c2ccccc2)C1=O (stereo not given) | inconclusive: 8.65% | – |
| Cc1ccccc1NC(=O)c1ccc(S(=O)(=O)C(F)F)cc1 | – | inconclusive: 25.9 µM [falling, single point] |
| COC(=O)c1cc(O)c(OCc2ccccc2)c(O)c1 | inconclusive: 2.65% | – |
| Cc1cc(/C=N/NC(=O)c2ccc(O)cc2)c(C)n1CC(C)C | inconclusive: 210% | – |
| Cc1cccc(Nc2nnc(SCC(=O)NC(=O)Nc3ccc4c(c3)OCCO4)s2)c1 | – | inconclusive: 11.6 µM [falling, partial curve] |
| CCOc1cccc2sc(N3CCN(C(=O)c4ccc5c(c4)CCCC5)CC3)nc12 | inactive: -11.7% | – |
| CC(C)CCNC(=O)c1c(CSc2ccccc2)noc1C(=O)NCc1ccccc1 | inactive: -0.825% | – |
| CCS(=O)(=O)N1CCN(c2ccc([N+](=O)[O-])c(NCc3cccnc3)c2)CC1 | inconclusive: 2.7% | – |
| CCCc1ccc(C(=O)[C@@H]2[C@@H](C(C)=O)N3c4ccc(F)cc4C=C[C@@H]3[C@@]23C(=O)Nc2ccccc23)cc1 | inconclusive: 0.169% | – |
| Nc1nc2ccccc2n1/N=C/c1ccc(Br)cc1 | inactive: 18% | – |
| O=C1Nc2ccccc2SC(c2ccccc2)C1O (stereo not given) | – | inconclusive: 8.2 µM [rising, partial curve, poor fit] |

More compounds

SMILES	activity change, negative = inhibition	Potency
OCc1nnn(-c2cccc(C(F)(F)F)c2)c1CO	–	inconclusive: 22.4 µM [falling, single point]
O=C(Nc1cccc(C(=O)O)c1)/C(=C\c1ccccc1)NC(=O)c1ccccc1Cl	inactive: -2.12%	–
S=c1[nH]nc(Cc2ccc(Cl)cc2)n1-c1ccc2c(c1)OCCO2	inactive: -16.1%	–
CCOC(=O)C1(Cc2cccc(Cl)c2)CCCN(C2CCN(C(C)=O)CC2)C1 (stereo not given)	inconclusive: -19.5%	–
NC(=O)N/N=C\c1cccs1	inconclusive: 9.47%	–
COc1cccc(C2=CC(c3ccccc3F)n3ncc(C(=O)Nc4ccc(C)cc4)c3N2)c1 (stereo not given)	inconclusive: 5.27%	–
Cc1cccc(-n2ccnc2CN2CCN(C(C)C)C(CCO)C2)c1 (stereo not given)	inactive: -7.47%	–
O=C1CCCCC1Sc1nnc(-c2ccc3c(c2)OCO3)o1 (stereo not given)	–	inconclusive: 5.62 µM [rising, single point]
Cc1cc(C(=O)OCC(=O)N2CC(C)OC(C)C2)c(C)n1-c1ccccc1 (stereo not given)	inconclusive: -0.349%	–
CCOC(=O)c1cc(-c2ccccc2)nc2nc(N3CCCCC3)sc12	inconclusive: 2.99%	–
O=C(CCCN1C(=O)/C(=C/c2ccccc2Cl)SC1=S)NNC(=O)c1ccc(Cl)cc1Cl	–	inconclusive: 0.631 µM [falling, full curve, poor fit]
Cc1ccccc1NC(=O)COc1ccc2c(c1)OC(C)(C)CC2=O	–	inconclusive: 11.2 µM [falling, partial curve]
Nc1[nH]n2c(=O)cc(-c3ccccc3)nc2c1N=Nc1ccccc1	–	inconclusive: 0.398 µM [falling, full curve, poor fit]
COc1ccc(S(=O)(=O)N(CC(=O)N2CCOCC2)c2cc(Cl)ccc2OC)cc1OC	inconclusive: 1.03%	–
COc1cc(C(=O)N/N=C/c2ccc3c(c2)c2ccccc2n3C)ccc1O	inconclusive: -12.9%	–
COC(=O)CNC(=O)C(C)NC(=O)CNC(=O)OCc1ccccc1 (stereo not drawn) (Cbz-Gly-[ξA]-Gly-OMe)	inconclusive: 10%	–
O=C(Nc1ccc(Cl)cc1)Nc1ccccc1Sc1ncc([N+](=O)[O-])s1	–	inconclusive: 17.8 µM [falling, partial curve]
CCCC(=O)N1N=C(c2ccccc2)CC1c1cn(C)c2ccccc12 (stereo not given)	inconclusive: -17.8%	–
CCOC(=O)CC1C(C(=O)OCC)ON2OC(C(=O)OC)C(C(=O)OCC)C12 (stereo not given)	inconclusive: -11.1%	–
CCN(CC)C(=O)c1sc2c(c1C)c(=O)n(-c1ccccc1)c(=O)n2Cc1c(C)cc(C)cc1C	–	inconclusive: 0.562 µM [falling, partial curve, poor fit]
O=C(CSc1nnnn1C1CCCCC1)Nc1ccc2c(c1)OCO2	inconclusive: 6.98%	–
CCOc1ccc(NC(=O)CC2C(=O)N(c3ccccc3)C(=O)N2CCc2cccs2)cc1 (stereo not given)	inconclusive: 3.6%	–
COc1ccc(OCC(=O)NNC(=O)C2CCN(c3ncnc4sc(C)c(C)c34)CC2)cc1	inconclusive: -9.47%	–
c1ccc(CNc2nc3ccccc3n3cnnc23)cc1	inconclusive: 28.6%	–
Cc1cccc(NC(=O)c2ccccc2O)c1C	inconclusive: -10.4%	–
CCN(CC)CCn1c(=O)n(-c2ccc(Cl)cc2)c(=O)c2c3c(sc21)CN(C)CC3	inconclusive: 6.17%	–
